Source: publication PMC5452337
Results are given in words; binding and its absence hold for the method and conditions named. Binding seen in cells or lysates may run through a third protein. These calls come from enrichment with a bait or labelling near it, and not all partners need be listed.

Sequences of proteins named here, by UniProt entry; tags and fusion partners are left off. Residues count along the entry.
UniProt Q9Z0U4, residues 20-960: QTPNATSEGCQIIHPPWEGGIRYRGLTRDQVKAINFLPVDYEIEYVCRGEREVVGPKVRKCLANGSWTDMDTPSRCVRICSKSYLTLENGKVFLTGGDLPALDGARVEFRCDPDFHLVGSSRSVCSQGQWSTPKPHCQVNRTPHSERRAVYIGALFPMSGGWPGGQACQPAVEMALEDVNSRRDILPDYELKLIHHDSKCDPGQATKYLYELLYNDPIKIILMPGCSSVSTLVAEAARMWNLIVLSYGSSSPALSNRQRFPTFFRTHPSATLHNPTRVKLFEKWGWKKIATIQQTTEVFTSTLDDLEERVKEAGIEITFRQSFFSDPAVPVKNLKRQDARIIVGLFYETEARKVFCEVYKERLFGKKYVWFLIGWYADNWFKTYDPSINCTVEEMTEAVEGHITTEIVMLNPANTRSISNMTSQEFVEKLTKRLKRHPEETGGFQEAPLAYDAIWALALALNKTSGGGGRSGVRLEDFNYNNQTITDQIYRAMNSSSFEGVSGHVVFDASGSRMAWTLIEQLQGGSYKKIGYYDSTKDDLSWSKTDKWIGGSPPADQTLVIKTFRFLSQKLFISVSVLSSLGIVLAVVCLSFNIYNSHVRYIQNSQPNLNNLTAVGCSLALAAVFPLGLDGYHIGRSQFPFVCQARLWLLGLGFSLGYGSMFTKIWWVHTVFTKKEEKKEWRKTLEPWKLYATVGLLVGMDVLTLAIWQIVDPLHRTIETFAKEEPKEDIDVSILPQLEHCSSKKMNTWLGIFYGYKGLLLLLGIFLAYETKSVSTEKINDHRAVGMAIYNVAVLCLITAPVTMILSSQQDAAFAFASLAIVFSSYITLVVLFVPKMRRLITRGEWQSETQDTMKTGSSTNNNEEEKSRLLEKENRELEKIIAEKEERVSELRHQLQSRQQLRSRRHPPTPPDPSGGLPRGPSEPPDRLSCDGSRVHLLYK
UniProt Q9QUL6: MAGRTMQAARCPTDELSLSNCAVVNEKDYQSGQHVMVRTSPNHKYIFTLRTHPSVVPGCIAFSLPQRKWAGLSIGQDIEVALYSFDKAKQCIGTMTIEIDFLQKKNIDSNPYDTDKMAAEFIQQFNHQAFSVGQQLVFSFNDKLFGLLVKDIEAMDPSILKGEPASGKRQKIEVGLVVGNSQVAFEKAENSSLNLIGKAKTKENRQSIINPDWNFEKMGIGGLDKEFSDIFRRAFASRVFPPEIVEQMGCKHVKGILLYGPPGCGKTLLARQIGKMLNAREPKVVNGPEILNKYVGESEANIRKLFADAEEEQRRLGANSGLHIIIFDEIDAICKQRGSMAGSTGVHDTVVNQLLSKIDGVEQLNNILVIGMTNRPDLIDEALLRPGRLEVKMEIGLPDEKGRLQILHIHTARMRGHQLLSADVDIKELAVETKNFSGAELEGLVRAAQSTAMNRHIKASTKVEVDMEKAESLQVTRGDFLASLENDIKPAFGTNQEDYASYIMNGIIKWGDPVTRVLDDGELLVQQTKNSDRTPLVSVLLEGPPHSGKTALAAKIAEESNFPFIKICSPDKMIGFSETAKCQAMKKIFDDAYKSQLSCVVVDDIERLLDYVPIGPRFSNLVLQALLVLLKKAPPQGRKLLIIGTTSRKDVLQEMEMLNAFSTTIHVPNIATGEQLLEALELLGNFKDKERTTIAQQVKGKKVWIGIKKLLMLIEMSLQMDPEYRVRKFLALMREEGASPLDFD

Target: GABAB receptor subunit GABABR1 (rat (endogenous in adult cortex)) (UniProt Q9Z0U4)
Assay: affinity purification with mass spectrometry; sheep anti-GABABR1 antibody on synaptic membranes of adult rat cortex solubilised in 50 mM Tris-HCl pH 7.4, 1% sodium deoxycholate; Protein G Sepharose, 4°C; gel bands, LC-MS/MS; sheep IgG control; three independent isolates

binding | Molecule
binds | NEM-sensitive fusion protein (from UniProt Q9QUL6 1-744)
binds | solute carrier family 12, member 5 protein (SLC12A5), potassium-chloride cotransporter KCC2 (protein, UniProt Q63633 1-1139) MSRRFTVTSLPPAASAASADPESRRHSVADPRRLPREDVKGDGNPKESSPFINSTDTEKGREYDGRNMALFEEEMDTSPMVSSLLSGLANYTNLPQGSKEHEEAENNEGGKKKPVQAPRMGTFMGVYLPCLQNIFGVILFLRLTWVVGIAGIMESFCMVFICCSCTMLTAISMSAIATNGVVPAGGSYYMISRSLGPEFGGAVGLCFYLGTTFAGAMYILGTIEILLAYLFPAMAIFKAEDASGEAAAMLNNMRVYGTCVLTCMATVVFVGVKYVNKFALVFLGCVILSILAIYAGVIKSAFDPPNFPICLLGNRTLSRHGFDVCAKLAWEGNETVTTRLWGLFCSSRLLNATCDEYFTRNNVTEIQGIPGAASGLIKENLWSSYLTKGVIVERRGMPSVGLADGTPVDMDHPYVFSDMTSYFTLLVGIYFPSVTGIMAGSNRSGDLRDAQKSIPTGTILAIATTSAVYISSVVLFGACIEGVVLRDKFGEAVNGNLVVGTLAWPSPWVIVIGSFFSTCGAGLQSLTGAPRLLQAISRDGIVPFLQVFGHGKANGEPTWALLLTACICEIGILIASLDEVAPILSMFFLMCYMFVNLACAVQTLLRTPNWRPRFRYYHWTLSFLGMSLCLALMFICSWYYALVAMLIAGLIYKYIEYRGAEKEWGDGIRGLSLSAARYALLRLEEGPPHTKNWRPQLLVLVRVDQDQNVVHPQLLSLTSQLKAGKGLTIVGSVLEGTFLDNHPQAQRAEESIRRLMEAEKVKGFCQVVISSNLRDGVSHLIQSGGLGGLQHNTVLVGWPRNWRQKEDHQTWRNFIELVRETTAGHLALLVTKNVSMFPGNPERFSEGSIDVWWIVHDGGMLMLLPFLLRHHKVWRKCKMRIFTVAQMDDNSIQMKKDLTTFLYHLRITAEVEVVEMHESDISAYTYEKTLVMEQRSQILKQMHLTKNEREREIQSITDESRGSIRRKNPANTRLRLNVPEETACDNEEKPEEEVQLIHDQSAPSCPSSSPSPGEEPEGEGETDPEKVHLTWTKDKSAAQKNKGPSPVSSEGIKDFFSMKPEWENLNQSNVRRMHTAVRLNEVIVNKSRDAKLVLLNMPGPPRNRNGDENYMEFLEVLTEQLDRVMLVRGGGREVITIYS
